Numbering of substitutions follows the chain as printed. Construct, isoform or probe ends are uncertain for at least one entry. For some of these results: No signal at the amounts used counts as a negative. Tags and fusion partners may be left off the protein sequences shown. For some of these results: At least one verdict rests on a figure or table, not on a statement of the authors.

What all share (assay): fluorescence polarization
Background: Polarisation of emitted light reports the rotation of a fluorescent probe.

One data set deals with T1, SegC (UniProt Q981B4).
T1 sequence (looked up): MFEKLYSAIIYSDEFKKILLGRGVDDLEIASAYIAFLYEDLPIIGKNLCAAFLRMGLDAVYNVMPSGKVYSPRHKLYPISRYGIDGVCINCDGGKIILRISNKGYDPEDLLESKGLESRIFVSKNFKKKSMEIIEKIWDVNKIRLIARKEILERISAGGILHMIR
As to conditions: FP: 20 mM Tris-HCl pH 7.5, 100 mM NaCl, 2 mM MgCl2, 5 nM Cy3-DNA, room temperature, recombinant protein, protein details: C-terminal His6, label: 5' Cy3.

The next data set concerns the target T2, SegC-K46A (UniProt Q981B4).
T2 sequence (looked up): T1 sequence (looked up) with K46A
As to conditions: similar to WT, Kd only in figure table; FP: 20 mM Tris-HCl pH 7.5, 100 mM NaCl, 2 mM MgCl2, 5 nM Cy3-DNA, room temperature; recombinant protein; residues 1-165; label: 5' Cy3.

Another data set has as its target T3, SegC-N90A (UniProt Q981B4).
T3 sequence (looked up): T1 sequence (looked up) with N90A
To be noted: two-fold lower affinity than WT; FP: 20 mM Tris-HCl pH 7.5, 100 mM NaCl, 2 mM MgCl2, 5 nM Cy3-DNA, room temperature; recombinant protein; residues 1-165; label: 5' Cy3.

The target in the next data set is T4, SegC-R73A (UniProt Q981B4).
T4 sequence (looked up): T1 sequence (looked up) with R73A
As to conditions: similar to WT, Kd only in figure table; FP: 20 mM Tris-HCl pH 7.5, 100 mM NaCl, 2 mM MgCl2, 5 nM Cy3-DNA, room temperature; recombinant protein; residues 1-165; label: 5' Cy3.

The target in a further data set is T5, SegC-R81A (UniProt Q981B4).
T5 sequence (looked up): T1 sequence (looked up) with R81A
To be noted: similar to WT, Kd only in figure table; FP: 20 mM Tris-HCl pH 7.5, 100 mM NaCl, 2 mM MgCl2, 5 nM Cy3-DNA, room temperature; recombinant protein; residues 1-165; label: 5' Cy3.

The target in another data set is T6, SegC-R99A (UniProt Q981B4).
T6 sequence (looked up): T1 sequence (looked up) with R99A
As to conditions: similar to WT, Kd only in figure table; FP: 20 mM Tris-HCl pH 7.5, 100 mM NaCl, 2 mM MgCl2, 5 nM Cy3-DNA, room temperature; recombinant protein; residues 1-165; label: 5' Cy3.

The Kd is the constant that tells how readily two partners part at equilibrium. As for “ACGTAGAAGAGTCTAGACTGA / CAGTCTAGACTCTTCTACGTA”, the binding result with SegC (500 mM salt, NB (no measurable binding), residues …) is reported as “no binding”; with SegC-K46A, “binds”; in the data set with SegC-R73A it was “binds”; in the data set with SegC-R81A it was “binds”; in the data set with SegC-R99A, “binds”. In the data set with SegC-N90A, the dissociation constant (Kd) was 4580 nM.
Turning to “ACGTAGAAGAGTCTAGACTGA / CAGTCTAGACTCTTCTACGTA [21-bp site 1 (S1) dsDNA]”, the Kd in the data set with SegC (printed as ~10^-6 uM, evidently 10^-6 M, collective value for Figure 1A and B, residues 1-165) stood at 1000 nM.

The record behind these values is article PMC11381335, “Unraveling the structure and function of a novel SegC protein interacting with the SegAB chromosome segregation complex in Archaea” (Nucleic Acids Research, 2024).
